In PMC5605516:
These are yes or no findings as the source states them, for the method shown. Binding seen in cells or lysates may run through a third protein. Some binding calls cover weakened binding; strength is not graded here. For part of these data: Where a sequence is shown, tags or fusion partners need not be part of it.

Sequences of proteins named here, by UniProt entry; tags and fusion partners are left off.
UniProt Q7Z434: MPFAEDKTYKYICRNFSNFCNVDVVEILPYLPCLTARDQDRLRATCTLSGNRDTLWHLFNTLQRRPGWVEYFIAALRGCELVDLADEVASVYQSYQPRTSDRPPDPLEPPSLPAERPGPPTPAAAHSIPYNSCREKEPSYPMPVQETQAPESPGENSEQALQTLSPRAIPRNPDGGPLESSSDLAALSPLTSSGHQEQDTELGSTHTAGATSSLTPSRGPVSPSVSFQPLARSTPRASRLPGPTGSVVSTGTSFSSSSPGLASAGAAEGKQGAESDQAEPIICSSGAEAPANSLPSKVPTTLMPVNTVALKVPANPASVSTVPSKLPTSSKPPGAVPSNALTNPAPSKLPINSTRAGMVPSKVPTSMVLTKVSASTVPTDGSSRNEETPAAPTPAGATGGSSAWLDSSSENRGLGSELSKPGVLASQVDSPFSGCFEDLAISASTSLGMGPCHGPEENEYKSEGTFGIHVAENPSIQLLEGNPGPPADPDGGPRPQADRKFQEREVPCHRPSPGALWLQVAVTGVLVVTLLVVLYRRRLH

Columns and labels:
FLAG-tagged MAVS [1] = biological target: FLAG-tagged MAVS (UniProt Q7Z434); assay: proximity ligation; HeLa or THP-1 cells transfected with FLAG-MAVS and Zyxin-HA, fixed, anti-FLAG and anti-HA antibodies, Duolink in situ PLA kit, confocal microscopy
FLAG-tagged MDA5 = biological target: T1, FLAG-tagged MDA5 (UniProt Q9BYX4); assay: co-IP
T1 sequence: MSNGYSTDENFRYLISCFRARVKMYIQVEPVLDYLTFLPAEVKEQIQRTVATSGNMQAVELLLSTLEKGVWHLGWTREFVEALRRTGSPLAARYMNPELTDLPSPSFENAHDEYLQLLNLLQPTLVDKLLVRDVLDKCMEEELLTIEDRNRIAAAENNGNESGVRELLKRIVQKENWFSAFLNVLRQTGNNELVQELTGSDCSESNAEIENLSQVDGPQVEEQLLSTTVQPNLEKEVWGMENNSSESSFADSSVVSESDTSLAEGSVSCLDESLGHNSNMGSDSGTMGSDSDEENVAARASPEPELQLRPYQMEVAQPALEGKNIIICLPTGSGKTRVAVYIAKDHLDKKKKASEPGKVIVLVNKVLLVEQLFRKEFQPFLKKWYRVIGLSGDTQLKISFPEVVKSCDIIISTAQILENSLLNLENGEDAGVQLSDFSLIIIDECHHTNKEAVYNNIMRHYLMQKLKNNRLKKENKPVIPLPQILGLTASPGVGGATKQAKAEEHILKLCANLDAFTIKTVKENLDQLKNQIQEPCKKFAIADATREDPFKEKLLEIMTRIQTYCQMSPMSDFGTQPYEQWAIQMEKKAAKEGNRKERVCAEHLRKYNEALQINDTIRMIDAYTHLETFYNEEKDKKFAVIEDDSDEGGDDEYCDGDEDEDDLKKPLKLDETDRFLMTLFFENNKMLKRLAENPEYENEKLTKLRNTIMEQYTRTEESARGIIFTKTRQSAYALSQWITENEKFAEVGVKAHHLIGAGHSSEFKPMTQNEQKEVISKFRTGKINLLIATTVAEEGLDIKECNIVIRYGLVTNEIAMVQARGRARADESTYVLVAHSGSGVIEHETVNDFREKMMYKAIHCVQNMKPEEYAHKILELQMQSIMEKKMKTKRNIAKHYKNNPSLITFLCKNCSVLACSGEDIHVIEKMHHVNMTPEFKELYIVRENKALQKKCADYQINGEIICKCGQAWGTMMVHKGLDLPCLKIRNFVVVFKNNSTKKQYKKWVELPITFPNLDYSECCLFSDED

FLAG-tagged MAVS [2] = biological target: FLAG-tagged MAVS (UniProt Q7Z434); assay: co-IP
FLAG-tagged RIG-I = biological target: T2, FLAG-tagged RIG-I (UniProt O95786); assay: co-IP
T2 sequence: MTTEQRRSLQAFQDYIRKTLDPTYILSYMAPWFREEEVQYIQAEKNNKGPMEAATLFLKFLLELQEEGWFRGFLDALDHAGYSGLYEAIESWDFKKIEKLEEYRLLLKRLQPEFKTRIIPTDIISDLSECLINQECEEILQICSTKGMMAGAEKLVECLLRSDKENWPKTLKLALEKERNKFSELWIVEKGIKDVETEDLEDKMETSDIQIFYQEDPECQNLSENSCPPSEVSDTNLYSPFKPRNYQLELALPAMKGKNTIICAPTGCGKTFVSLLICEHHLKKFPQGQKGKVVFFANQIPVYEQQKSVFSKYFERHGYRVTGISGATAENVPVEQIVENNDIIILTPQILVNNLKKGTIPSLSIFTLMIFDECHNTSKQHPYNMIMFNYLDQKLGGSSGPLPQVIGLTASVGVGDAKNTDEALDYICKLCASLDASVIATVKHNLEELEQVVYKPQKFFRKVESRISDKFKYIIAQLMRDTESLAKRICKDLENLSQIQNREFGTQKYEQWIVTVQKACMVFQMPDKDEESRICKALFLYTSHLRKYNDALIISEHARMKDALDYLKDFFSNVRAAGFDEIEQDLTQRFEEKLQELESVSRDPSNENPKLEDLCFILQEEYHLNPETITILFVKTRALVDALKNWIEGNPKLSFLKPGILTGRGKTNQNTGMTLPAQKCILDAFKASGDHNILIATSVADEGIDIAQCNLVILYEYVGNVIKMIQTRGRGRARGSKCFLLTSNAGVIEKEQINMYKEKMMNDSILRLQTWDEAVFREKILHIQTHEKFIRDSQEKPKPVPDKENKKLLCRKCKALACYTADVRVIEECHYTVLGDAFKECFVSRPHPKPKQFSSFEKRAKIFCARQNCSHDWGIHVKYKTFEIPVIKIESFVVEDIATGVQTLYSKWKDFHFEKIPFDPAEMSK

[3] = biological target: endogenous MAVS (human (endogenous in HEK293FT)) (UniProt Q7Z434); assay: co-IP; endogenous proteins of HEK293FT lysate, mock or 5'-pppRNA transfected for 6 h; IP with anti-MAVS antibody or control IgG, blots with anti-MAVS and anti-zyxin

Measured: binding

B1: HA-tagged zyxin, full length (protein, UniProt Q15942 1-572)
chain: MAAPRPSPAISVSVSAPAFYAPQKKFGPVVAPKPKVNPFRPGDSEPPPAPGAQRAQMGRVGEIPPPPPEDFPLPPPPLAGDGDDAEGALGGAFPPPPPPIEESFPPAPLEEEIFPSPPPPPEEEGGPEAPIPPPPQPREKVSSIDLEIDSLSSLLDDMTKNDPFKARVSSGYVPPPVATPFSSKSSTKPAAGGTAPLPPWKSPSSSQPLPQVPAPAQSQTQFHVQPQPQPKPQVQLHVQSQTQPVSLANTQPRGPPASSPAPAPKFSPVTPKFTPVASKFSPGAPGGSGSQPNQKLGHPEALSAGTGSPQPPSFTYAQQREKPRVQEKQHPVPPPAQNQNQVRSPGAPGPLTLKEVEELEQLTQQLMQDMEHPQRQNVAVNELCGRCHQPLARAQPAVRALGQLFHIACFTCHQCAQQLQGQQFYSLEGAPYCEGCYTDTLEKCNTCGEPITDRMLRATGKAYHPHCFTCVVCARPLEGTSFIVDQANRPHCVPDYHKQYAPRCSVCSEPIMPEPGRDETVRVVALDKNFHMKCYKCEDCGKPLSIEADDNGCFPLDGHVLCRKCHTARAQT
not listed: [3]
binds: all other assays above

B2: endogenous zyxin (protein, UniProt Q15942 1-572)
chain: B1 chain
binds: [3] | FLAG-tagged MAVS [2]
